These results are taken from the supplement of paper PMC7125110.

Sequences and labels used below:
B1: glmS ribozyme (parent)
chain: AUAAAAGCGCCAGAACUACAGAAAUGUAGUUGACGAGGAGGAGGUUUAUCGAAUUUUCGGCGGAUGCCUCCAAA

± gives the standard error. The uncertainty is large for many entries.

The variants in the first series derive from B1. Description: kcat; higher = faster cleavage; RNA array. Particulars: with glucosamine-6-phosphate. Summed up: (§1)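 A hybridised Cy3 probe tracked barcoded ribozyme variants, transcribed in situ by E. coli RNA polymerase on sequenced MiSeq chips, at 37 °C. The variants received 40 μM to 10 mM glucosamine-6-phosphate in HEPES/KCl/Mg(OAc)2 buffer. kobs came from decay fits and kcat and KM from weighted Michaelis–Menten fits.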
Broadly, the kcat is the number of substrate molecules converted per active site and unit of time at saturation. As to AUAAAAGCGCCAGAAAUACAGAAAUGUAUUUGACGAGGAGGAGGUUUAUCGAAUUUUCGGCGGAUGCCUCCAAA [C16A G29U], the kcat was determined as 0.0305 ± 0.016 s⁻¹.

As to AUAAAAGCGCCAGACCUACAGAAAUGUAGUUGACGAGGAGGAGGUUUAUCGAAUUGUCGGCGGAUGCCUCCAAA [A15C U56G], the kcat was determined as 0.00386 ± 0.0026 s⁻¹.

Turning to AUAAAAGCGCCAGAGCUACAGAAAUGUAGUCGACGAGGAGGAGGUUUAUCGAAUUUUCGGCGGAUGCCUCCAAA [A15G U31C], the kcat turned out to be 0.0189 ± 0.012 s⁻¹.

For the variant AUAAAAGCGCCAGAUCUACAGAAAUGUAGUUGACGAGGAGGAGGUUUAUCGAAUUUUCGGCGGAUGCUUCCAAA [A15U C68U], the kcat is 0.000466 ± 3e-05 s⁻¹.

As for AUAAAAGCGCCAGUACUACAGAAAUGUAGUUGACGAGGAGGAGGUUUAUCGAAUUCUCGGCGGAUGCCUCCAAA [A14U U56C], the kcat is 0.000439 ± 0.00028 s⁻¹.

Take AUAAAAGCGCCAGAUCUACAGAAAUGUAGUUGACGAGGAGGAGGUUUAUCGAAUUGUCGGCGGAUGCCUCCAAA [A15U U56G]: the kcat is 0.00786 ± 0.0027 s⁻¹.

On to AUAAAAGCGCCAGAGCUACAGAAAUGUAGUUGACGAGGAGGAGGUUUAUCGAAUUUUCGGCGGAUGUCUCCAAA [A15G C67U], for which the kcat came to 0.00805 ± 0.0041 s⁻¹.

Consider AUAAAAGCGCCAGACCUACAGAAAUGUAGUUGACGAGGAGGAGGUUUAUCGAAUUUUCGGCGGAUGCCGCCAAA [A15C U69G], for which the kcat came to 3.35e-05 ± 1.8e-05 s⁻¹.

In the case of AUAAAAGCGCCAGAAGUACAGAAAUGUAGUUGACGAGGAGGAGGUUUAUAGAAUUUUCGGCGGAUGCCUACAAA [C16G C50A C70A], the kcat was determined as 4.39e-05 ± 2.5e-05 s⁻¹.

On to AUAAAAGCGCCAGAGCUACAGAAAUGUAGUUGACGAGGAGGUGGUUUAUCGAAUUUUCGGCGGAUGCCUCCAAA [A15G A42U], for which the kcat is 0.000248 ± 4.1e-05 s⁻¹.

Take AUAAAAGCGCCAGUACUACAGAAAUGUAGUUGACGAGGAGGAGGUUCAUCGAAUUUUGGGCGGAUGCGUCCAAA [A14U U47C C58G C68G]: the kcat worked out at 5.66e-05 ± 3.9e-05 s⁻¹.

For AUAAAAGCGCCAGAAAUACAGAAAUGUAGUUGACGAGGAGGAGGUUUAUCGAAUUUUCGGCGGAUCCCUCCAAA [C16A G66C], the kcat was 6.9e-05 ± 1.7e-05 s⁻¹.

With AUAAAAGCGCCAGACCUACAGAAAUGUAGCGGACGAGGAGGAGGUUUAUCGAAUUUUCGGCGGAUGCCGCCAAA [A15C U30C U31G U69G], the kcat came to 3.56e-05 ± 2.8e-05 s⁻¹.

AUAAAAGCGCCAGAAGUACAGAAAUGUAGGUGACGAGGAGGAGGUUUAUGGAAUUUUCGGCGGAUGCCUCCAAA [C16G U30G C50G]: the kcat worked out at 9.89e-05 ± 5.4e-05 s⁻¹.

AUAAAAGCGCCAGAGCUACAGAAAUGUAGUUGACGAGGAGGAGGUUUAUCGAAUUUUCGGCGGAUGCCUCGAAA [A15G C71G]: the kcat amounted to 0.0013 ± 0.00065 s⁻¹.

Consider AUAAAAGCGCCAGACCUACAGAAAUGUAGUUGACGAGGGGGAGGUUUAUCGAAUUUUCGGCGGAUGCCUCCAAA [A15C A39G], for which the kcat was 0.0139 ± 0.008 s⁻¹.

Regarding AUAAAAGCGCCAGAAUUACAGAAAUGUAGUUGACGAGGAGGAGGUUUAUCGACUUUUCGGCGGAUGCCUCCAAA [C16U A53C], the kcat worked out at 0.00916 ± 0.0052 s⁻¹.

For AUAAAAGCGCCAGUACUACAGAAAUGUAGUUGACGAGGAGGAGGUUUAUCGAAUUUUCGGCGGACGCCUCCAAA [A14U U65C], the kcat worked out at 8.95e-05 ± 1.3e-05 s⁻¹.

Consider AUAAAAGCGCCAGUACUACAGAAAUGUAGUUGACGAGGAGGAGGUUUAUCGAAUUUUCGGCGGAAGCCUCCAAA [A14U U65A], for which the kcat was 0.0015 ± 0.00017 s⁻¹.

For AUAAAAGCGCCAGAAGUACAGAAAUGUAUUUGACGAGGAGGAGGUUUAUCGAAUUUUCGGCGGAUGCCUCCAAA [C16G G29U], the kcat was found to be 0.0203 ± 0.018 s⁻¹.

The variants in another series derive from B1. Description: KM; higher = weaker cofactor use; RNA array. Particulars: with glucosamine-6-phosphate. Put shortly: as §1
A word on the KM: it is the substrate concentration at which the rate is half of its maximum. Turning to AUAAAAGCGCCAGAAAUACAGAAAUGUAUUUGACGAGGAGGAGGUUUAUCGAAUUUUCGGCGGAUGCCUCCAAA [C16A G29U], the Michaelis-Menten constant (KM) was found to be 2180 ± 1500 µM.

For AUAAAAGCGCCAGACCUACAGAAAUGUAGUUGACGAGGAGGAGGUUUAUCGAAUUGUCGGCGGAUGCCUCCAAA [A15C U56G], the KM was 6870 ± 6000 µM.

On to AUAAAAGCGCCAGAGCUACAGAAAUGUAGUCGACGAGGAGGAGGUUUAUCGAAUUUUCGGCGGAUGCCUCCAAA [A15G U31C], for which the KM is 5670 ± 4100 µM.

As for AUAAAAGCGCCAGAUCUACAGAAAUGUAGUUGACGAGGAGGAGGUUUAUCGAAUUUUCGGCGGAUGCUUCCAAA [A15U C68U], the KM is 1610 ± 210 µM.

Consider AUAAAAGCGCCAGAUCUACAGAAAUGUAGUUGACGAGGAGGAGGUUUAUCGAAUUGUCGGCGGAUGCCUCCAAA [A15U U56G], for which the KM stood at 3290 ± 1500 µM.

With AUAAAAGCGCCAGAGCUACAGAAAUGUAGUUGACGAGGAGGAGGUUUAUCGAAUUUUCGGCGGAUGUCUCCAAA [A15G C67U], the KM came out at 1710 ± 1200 µM.

In the case of AUAAAAGCGCCAGAGCUACAGAAAUGUAGUUGACGAGGAGGUGGUUUAUCGAAUUUUCGGCGGAUGCCUCCAAA [A15G A42U], the KM came to 1410 ± 570 µM.

As for AUAAAAGCGCCAGAAAUACAGAAAUGUAGUUGACGAGGAGGAGGUUUAUCGAAUUUUCGGCGGAUCCCUCCAAA [C16A G66C], the KM is 18700 ± 7000 µM.

For AUAAAAGCGCCAGAGCUACAGAAAUGUAGUUGACGAGGAGGAGGUUUAUCGAAUUUUCGGCGGAUGCCUCGAAA [A15G C71G], the KM worked out at 515 ± 360 µM.

As for AUAAAAGCGCCAGACCUACAGAAAUGUAGUUGACGAGGGGGAGGUUUAUCGAAUUUUCGGCGGAUGCCUCCAAA [A15C A39G], the KM worked out at 2880 ± 2600 µM.

Turning to AUAAAAGCGCCAGAAUUACAGAAAUGUAGUUGACGAGGAGGAGGUUUAUCGACUUUUCGGCGGAUGCCUCCAAA [C16U A53C], the KM worked out at 3560 ± 2600 µM.

In the case of AUAAAAGCGCCAGUACUACAGAAAUGUAGUUGACGAGGAGGAGGUUUAUCGAAUUUUCGGCGGACGCCUCCAAA [A14U U65C], the KM was 698 ± 460 µM.

On to AUAAAAGCGCCAGUACUACAGAAAUGUAGUUGACGAGGAGGAGGUUUAUCGAAUUUUCGGCGGAAGCCUCCAAA [A14U U65A], for which the KM was 4460 ± 760 µM.

In a further series the parent is B1. Description: self-cleavage kobs at 640 uM GlcN6P; higher = faster cleavage; RNA array. Particulars: with glucosamine-6-phosphate. Put shortly:
as §1
AUAAAAGCGCCAGAAGUACAGAAAUGUAGUUGACGAGGAGGAGGUUUAUAGAAUUUUCGGCGGAUGCCUACAAA [C16G C50A C70A]: the “self-cleavage kobs at 640 uM GlcN6P” value was 4.24e-05 ± 2.7e-05 s⁻¹.

The variants in the next series derive from B1. Description: self-cleavage kobs at 2500 uM GlcN6P; higher = faster cleavage; RNA array. To be noted: with glucosamine-6-phosphate. Put shortly:
as §1
As for AUAAAAGCGCCAGACCUACAGAAAUGUAGCGGACGAGGAGGAGGUUUAUCGAAUUUUCGGCGGAUGCCGCCAAA [A15C U30C U31G U69G], the “self-cleavage kobs at 2500 uM GlcN6P” value came to 3.5e-05 ± 2.2e-05 s⁻¹.

Variants of B1 are the subject of a further series. Description: self-cleavage kobs at 10000 uM GlcN6P; higher = faster cleavage; RNA array. Particulars: with glucosamine-6-phosphate. Summed up:
as §1
As for AUAAAAGCGCCAGACCUACAGAAAUGUAGCGGACGAGGAGGAGGUUUAUCGAAUUUUCGGCGGAUGCCGCCAAA [A15C U30C U31G U69G], the “self-cleavage kobs at 10000 uM GlcN6P” value is 1.94e-05 ± 1.7e-05 s⁻¹.

Variants of B1 are the subject of a further series. In words: self-cleavage kobs at 40 uM GlcN6P; higher = faster cleavage; RNA array. To be noted: with glucosamine-6-phosphate. Summed up: as §1
On to AUAAAAGCGCCAGUACUACAGAAAUGUAGUUGACGAGGAGGAGGUUUAUCGAAUUUUCGGCGGAAGCCUCCAAA [A14U U65A], for which the “self-cleavage kobs at 40 uM GlcN6P” value is 1.42e-05 ± 1.3e-05 s⁻¹.
